Values of other authors in US9631180B2, “Recombinant manganese oxidase” (OREGON HEALTH & SCIENCE UNIVERSITY, priority 2013, dated 2017).
For at least one compound, name, drawing or mass did not settle the structure.

Test system: B. licheniformis CotA
Conditions: described in Koschorreck K et al, 2008; cited from earlier work

For `COc1cccc(OC)c1O` [2,6-DMP, Dimethoxyphenol], the Km is given as 56.7 µM and the kcat is given as 28 s⁻¹.
